The record followed here is patent KR20120049206A.

Numbering of substitutions follows the chain as printed. Results are given in words; binding and its absence hold for the method and conditions named. Some entries that bind do so weakly or less than the wild type. Tags and fused reporters may be left off the sequences shown.

The experiment deals with GFP (green fluorescent protein), 항원용 GFP (Aequorea victoria) [GFP: P42212]. The experiment can be described thus: phage ELISA, 2 ug GFP per well coated, anti-M13-HRP.

B1: GFP 단일 도메인 항체 9H11 (VHH)
VHH: SGGGSVQSGGSLRLTCAASGRTSSISYMGWFRQSPGKEREGVAFIDRRDSTTYADLVKGRFTISRDNARNTLYLQMNSLKPEDTAMYYCAARIRGYYSRPALSADFDYWGQGTQVTVSS
Take B1: the binding entry is “binds”.

B2: GFP 단일 도메인 항체 2G2 (VHH)
VHH: EWGGSVQAGGSLRLSCSASGFASSPGCMAWFRQAPGKEREGVAEIATRSGSAYYADSVKGRFTISQDNAKNTLYLQMNSLKPEDTAIYYCAASRLRCTPAADFSRIPAYAMDYWGKGTQVTVSS
For B2, the binding entry is recorded as “binds”.

B3: GFP 단일 도메인 항체 3H8 (VHH)
VHH: ESGGGSVQSGGSLRLSCVASGSTDRPAYMAWFRQAPGKEREGVATIYTEFGSQYYADSVKGRFTISQDNAKRTAYLQMNSLKPEDTAMYYCAATTAFRVLGTRKLDAAQYAYWGQGTQVTVSS
B3: the binding entry is recorded as “binds”.

B4: GFP 단일 도메인 항체 10A8 (VHH)
VHH: SLGGGSVQAGGSLRLSCAASGFAMSTYCMAWFRQAPGKEREGVATLSPLGILSHYADSVKGRFTVSRDNAKNTLSLQMNSLIPEDTAMYYCAAMPRPDGGAHGCVSWLAYNFWGQGTQVTVSS
With B4, the binding entry was “binds”.

B5: GFP 단일 도메인 항체 2G9 (VHH)
VHH: ESGGGSVQAGGSLRLSCVVSRSTYTSNCMGWFRQAPGKEREEVASIYTGGGITYYADSVKGRFTVSQDNAKNTVYLQMNSLKPEDTAMYYCAAGRGSWSCGMGPDEYKYWGQGTQVTVSS
B5: the binding result was “binds”.

B6: GFP 단일 도메인 항체 8G4 (VHH)
VHH: B5 VHH with V18A, V19A, S20P, G51D, V65M, K71R, N72S, M102S
For the molecule B6, the binding result is “binds”.

B7: GFP 단일 도메인 항체 13C2 (VHH)
VHH: GGGGSVQAGGSLRLSCAASGYISDSHGRNCMGWFRQAPGKEREAVARIYSRLGTTYYADSVKGRFTISRDNAKNTLYLQMHSLKPEDTAMYYCAAVGGLCIDKETPTDYPFWGQGTQVTVSS
As to B7, the binding result is reported as “binds”.

B8: GFP 단일 도메인 항체 11F5 (VHH)
VHH: ESGGGSVQSGGSLRLSCSGVTGSDYCLGWFRQAPGREREGVAASSRYGSTYYGDFVRGRFTISRDSAKNTLILQMNNLQPEDTAMYYCAASRRVGSCSTYERVFAYWGQGTQVTVSS
As to B8, the binding result is listed as “binds”.

B9: GFP 단일 도메인 항체 8B9 (VHH)
VHH: ESGGGSVQAGGSLRLSCAASGYTVSRGCMAWFRQVPGKEREGVAAINSGDGTTYYADSVKGRFTISQDNAKNTVYLQMNSLEPEDTSIYYCAASRLRCPWNLVSASWYDFWGQGTQVTVSS
Turning to B9, the binding entry is “binds”.

B10: GFP 단일 도메인 항체 13H2 (VHH)
VHH: ESGGGSVQAGGSLKLSCAASGYISSNCMGWFRQAPGKEREGVASIYRGYGNTYYTDSVKGRFTISQDNAKNTIYLQMNSLKPEDTARYYCAAVNCARWPFDREYNYWGQGTQVTVSS
Take B10: the binding result is given as “binds”.

B11: GFP 단일 도메인 항체 7C8 (VHH)
VHH: SWGGSVQTGGSLGLSCTTSLDGYSSVCMGWFRQTPGKEREGVATIHRAFGDTYYADSVKGRFTISEDSAKNTVYLRMNSLKPEDTGMYYCAAGRPKSGSAWNCRDAEYVYWGQGTQVTVSS
As to B11, the binding result is “binds”.
